Measured values published in article PMC8718691.

Chains of the proteins cited; added tags and fusions are not shown. Residues count along the entry.
UniProt P49841: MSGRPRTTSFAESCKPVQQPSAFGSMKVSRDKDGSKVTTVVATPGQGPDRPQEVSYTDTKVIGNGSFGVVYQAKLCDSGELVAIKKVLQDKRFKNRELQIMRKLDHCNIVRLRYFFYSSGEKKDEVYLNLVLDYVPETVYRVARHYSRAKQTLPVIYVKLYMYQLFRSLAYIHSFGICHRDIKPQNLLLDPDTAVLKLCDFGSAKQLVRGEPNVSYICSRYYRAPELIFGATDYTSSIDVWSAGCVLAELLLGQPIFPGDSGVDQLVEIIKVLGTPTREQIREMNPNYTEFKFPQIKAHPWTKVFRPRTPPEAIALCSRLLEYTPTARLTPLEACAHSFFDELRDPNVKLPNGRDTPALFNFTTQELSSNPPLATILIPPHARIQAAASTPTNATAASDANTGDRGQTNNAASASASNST
UniProt P46531, residues 19-2555: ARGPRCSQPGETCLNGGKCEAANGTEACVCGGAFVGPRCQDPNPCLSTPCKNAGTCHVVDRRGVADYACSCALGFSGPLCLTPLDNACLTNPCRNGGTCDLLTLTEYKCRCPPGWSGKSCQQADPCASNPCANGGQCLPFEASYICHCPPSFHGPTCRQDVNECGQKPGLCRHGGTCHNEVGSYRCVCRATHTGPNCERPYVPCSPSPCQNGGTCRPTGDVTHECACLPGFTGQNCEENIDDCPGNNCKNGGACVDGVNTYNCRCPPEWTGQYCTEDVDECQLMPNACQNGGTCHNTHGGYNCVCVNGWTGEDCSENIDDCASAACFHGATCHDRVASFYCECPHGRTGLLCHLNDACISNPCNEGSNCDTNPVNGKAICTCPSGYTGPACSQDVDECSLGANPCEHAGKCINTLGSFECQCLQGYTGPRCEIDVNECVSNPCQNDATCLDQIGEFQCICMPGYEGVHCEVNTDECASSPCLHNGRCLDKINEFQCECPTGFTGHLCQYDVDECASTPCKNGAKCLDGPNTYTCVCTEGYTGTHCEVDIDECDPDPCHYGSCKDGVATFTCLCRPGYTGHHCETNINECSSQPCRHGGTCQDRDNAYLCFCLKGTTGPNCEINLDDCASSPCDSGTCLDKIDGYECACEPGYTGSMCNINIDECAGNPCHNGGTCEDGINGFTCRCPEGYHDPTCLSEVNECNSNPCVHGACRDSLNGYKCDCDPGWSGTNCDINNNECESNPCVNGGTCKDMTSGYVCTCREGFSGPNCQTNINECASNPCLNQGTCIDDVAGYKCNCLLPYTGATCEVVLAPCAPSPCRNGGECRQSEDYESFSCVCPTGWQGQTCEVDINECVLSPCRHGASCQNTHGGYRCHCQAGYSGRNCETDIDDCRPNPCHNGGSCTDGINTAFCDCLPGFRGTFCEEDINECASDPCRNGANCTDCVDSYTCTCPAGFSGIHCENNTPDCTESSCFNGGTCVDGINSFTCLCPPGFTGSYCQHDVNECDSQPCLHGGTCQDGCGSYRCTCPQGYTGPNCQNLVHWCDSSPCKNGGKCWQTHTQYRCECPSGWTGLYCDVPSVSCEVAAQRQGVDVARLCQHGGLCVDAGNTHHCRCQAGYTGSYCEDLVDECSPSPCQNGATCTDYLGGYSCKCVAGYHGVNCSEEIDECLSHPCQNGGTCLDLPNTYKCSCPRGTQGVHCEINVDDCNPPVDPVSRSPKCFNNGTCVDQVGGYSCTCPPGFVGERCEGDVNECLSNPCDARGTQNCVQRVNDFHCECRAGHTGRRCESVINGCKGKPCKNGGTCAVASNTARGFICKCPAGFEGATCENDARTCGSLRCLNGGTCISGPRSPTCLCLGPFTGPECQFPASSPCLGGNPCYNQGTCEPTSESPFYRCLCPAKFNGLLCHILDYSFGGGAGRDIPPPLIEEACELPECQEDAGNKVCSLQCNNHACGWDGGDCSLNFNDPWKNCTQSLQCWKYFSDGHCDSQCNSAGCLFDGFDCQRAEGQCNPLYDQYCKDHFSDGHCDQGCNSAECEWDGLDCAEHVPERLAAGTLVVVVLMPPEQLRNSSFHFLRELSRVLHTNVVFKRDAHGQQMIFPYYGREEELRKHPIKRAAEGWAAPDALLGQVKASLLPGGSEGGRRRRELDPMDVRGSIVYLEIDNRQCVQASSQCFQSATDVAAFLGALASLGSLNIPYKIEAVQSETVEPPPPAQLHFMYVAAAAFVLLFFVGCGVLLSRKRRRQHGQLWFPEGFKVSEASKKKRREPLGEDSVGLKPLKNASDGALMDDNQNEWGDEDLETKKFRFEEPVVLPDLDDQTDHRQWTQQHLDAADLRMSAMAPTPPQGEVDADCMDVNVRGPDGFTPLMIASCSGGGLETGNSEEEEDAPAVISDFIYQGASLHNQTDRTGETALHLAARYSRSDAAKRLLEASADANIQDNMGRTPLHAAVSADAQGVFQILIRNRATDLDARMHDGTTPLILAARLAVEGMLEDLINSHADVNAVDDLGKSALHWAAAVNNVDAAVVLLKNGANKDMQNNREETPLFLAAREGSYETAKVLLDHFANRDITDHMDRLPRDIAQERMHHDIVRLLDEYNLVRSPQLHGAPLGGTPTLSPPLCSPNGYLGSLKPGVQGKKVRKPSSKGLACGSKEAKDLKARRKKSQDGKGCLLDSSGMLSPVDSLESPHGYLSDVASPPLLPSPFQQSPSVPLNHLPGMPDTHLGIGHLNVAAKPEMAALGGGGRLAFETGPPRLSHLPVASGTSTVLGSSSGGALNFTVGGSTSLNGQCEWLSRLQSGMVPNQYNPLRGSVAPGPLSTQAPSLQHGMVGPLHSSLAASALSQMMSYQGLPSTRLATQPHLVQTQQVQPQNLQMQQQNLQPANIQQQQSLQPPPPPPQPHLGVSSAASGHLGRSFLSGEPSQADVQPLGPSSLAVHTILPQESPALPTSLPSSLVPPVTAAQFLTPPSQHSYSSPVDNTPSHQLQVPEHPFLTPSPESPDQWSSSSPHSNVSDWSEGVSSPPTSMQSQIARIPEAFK
UniProt P23443: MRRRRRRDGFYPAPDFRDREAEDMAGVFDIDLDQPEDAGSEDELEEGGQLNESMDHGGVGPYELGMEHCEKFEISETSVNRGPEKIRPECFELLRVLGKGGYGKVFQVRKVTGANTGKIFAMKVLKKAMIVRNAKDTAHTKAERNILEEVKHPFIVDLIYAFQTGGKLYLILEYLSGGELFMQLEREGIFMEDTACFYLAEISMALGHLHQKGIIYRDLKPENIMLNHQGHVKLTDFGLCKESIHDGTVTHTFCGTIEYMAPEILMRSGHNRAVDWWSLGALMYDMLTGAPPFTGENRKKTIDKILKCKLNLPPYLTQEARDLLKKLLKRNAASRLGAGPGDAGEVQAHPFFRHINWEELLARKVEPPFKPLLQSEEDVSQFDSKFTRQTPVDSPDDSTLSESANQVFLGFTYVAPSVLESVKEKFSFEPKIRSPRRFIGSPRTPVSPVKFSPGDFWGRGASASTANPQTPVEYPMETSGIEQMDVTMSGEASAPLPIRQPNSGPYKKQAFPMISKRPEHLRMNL

B1: caspase recruitment domain-containing protein 11 (protein, UniProt Q9BXL7 1-1154)
chain: MPGGGPEMDDYMETLKDEEDALWENVECNRHMLSRYINPAKLTPYLRQCKVIDEQDEDEVLNAPMLPSKINRAGRLLDILHTKGQRGYVVFLESLEFYYPELYKLVTGKEPTRRFSTIVVEEGHEGLTHFLMNEVIKLQQQMKAKDLQRCELLARLRQLEDEKKQMTLTRVELLTFQERYYKMKEERDSYNDELVKVKDDNYNLAMRYAQLSEEKNMAVMRSRDLQLEIDQLKHRLNKMEEECKLERNQSLKLKNDIENRPKKEQVLELERENEMLKTKNQELQSIIQAGKRSLPDSDKAILDILEHDRKEALEDRQELVNRIYNLQEEARQAEELRDKYLEEKEDLELKCSTLGKDCEMYKHRMNTVMLQLEEVERERDQAFHSRDEAQTQYSQCLIEKDKYRKQIRELEEKNDEMRIEMVRREACIVNLESKLRRLSKDSNNLDQSLPRNLPVTIISQDFGDASPRTNGQEADDSSTSEESPEDSKYFLPYHPPQRRMNLKGIQLQRAKSPISLKRTSDFQAKGHEEEGTDASPSSCGSLPITNSFTKMQPPRSRSSIMSITAEPPGNDSIVRRYKEDAPHRSTVEEDNDSGGFDALDLDDDSHERYSFGPSSIHSSSSSHQSEGLDAYDLEQVNLMFRKFSLERPFRPSVTSVGHVRGPGPSVQHTTLNGDSLTSQLTLLGGNARGSFVHSVKPGSLAEKAGLREGHQLLLLEGCIRGERQSVPLDTCTKEEAHWTIQRCSGPVTLHYKVNHEGYRKLVKDMEDGLITSGDSFYIRLNLNISSQLDACTMSLKCDDVVHVRDTMYQDRHEWLCARVDPFTDHDLDMGTIPSYSRAQQLLLVKLQRLMHRGSREEVDGTHHTLRALRNTLQPEEALSTSDPRVSPRLSRASFLFGQLLQFVSRSENKYKRMNSNERVRIISGSPLGSLARSSLDATKLLTEKQEELDPESELGKNLSLIPYSLVRAFYCERRRPVLFTPTVLAKTLVQRLLNSGGAMEFTICKSDIVTRDEFLRRQKTETIIYSREKNPNAFECIAPANIEAVAAKNKHCLLEAGIGCTRDLIKSNIYPIVLFIRVCEKNIKRFRKLLPRPETEEEFLRVCRLKEKELEALPCLYATVEPDMWGSVEELLRVVKDKIGEEQRKTIWVDEDQL

Target: Glycogen synthase kinase 3β (human (endogenous in HuT78 and primary PBL T-cells)) (UniProt P49841)
Experiment: affinity purification with mass spectrometry; anti-GSK3β immunoprecipitates from lysates (2 mg protein each) of resting or LFA-1/ICAM-1-stimulated migrating HuT78 T-cells; native gel, in-gel trypsin digest, LC-ESI-MS/MS, Mascot search against UniProt Human

Q: Which binding does the source give for “Notch1 (from UniProt P46531 19-2555) (receptor)” here?
A: binds

Q: How did the binding turn out when “ribosomal protein S6 kinase beta-1 (from UniProt P23443 1-525) (enzyme)” was run?
A: binds

Q: B1 was tested. Which binding did it give?
A: binds

These are yes or no findings as the source states them, for the method shown. Binding seen in cells or lysates may run through a third protein. These calls come from enrichment with a bait or labelling near it, and not all partners need be listed.
